Results deposited as PubChem BioAssay AID686937 (Drosophila RNAi Screening Center, 2013)
The screen tested about 23,000 reagents; below is an unselected part of those that have a named target and a result. 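Reduced-secretion tags in replicate 1 do not always agree with the z-scores; no criterion for assigning the tags was given.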 A plus sign joins genes that one reagent is predicted to hit. Further read-outs or replicates are left out here. No sequences are given here. Not given: the amount of reagent.

Purpose: 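Knock-downs that reduce output of a secreted reporter enzyme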 (primary screen)
Cells: Drosophila S2 cells expressing secreted horseradish peroxidase
Reagent: long dsRNA against Drosophila genes
Duration: about 5.5 days (5 days dsRNA, then 12 h reporter induction)
Treatment: reporter expression induced after 5 days of dsRNA, read 12 h later; inducer not stated
Detection: 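After 5 days of dsRNA and 12 h of reporter induction, medium peroxidase read by chemiluminescence and scored as per-plate z-score; higher values mean more reporter released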
Scale: z-score: higher = more reporter secreted into medium

| gene | dsRNA | z-score, replicate 1 | z-score, replicate 2 |
| --- | --- | --- | --- |
| CG12499 | DRSC14521 | -0.14 | -0.75 |
| axed (axundead) | DRSC08833 | 0.63 | 0.46 |
| axed (axundead) | DRSC10982 | 0.38 | 0.33 |
| Obp57a (Odorant-binding protein 57a) | DRSC22047 | 0.5 | 0.3 |
| CG12158 | DRSC22933 | -0.07 | -0.29 |
| Targ1 (Terminal ADP-ribose protein glycohydrolase 1) | DRSC11616 | 0.13 | -0.37 |
| CG18577 | DRSC15352 | 0.25 | -1.08 |
| CG12511 | DRSC02171 | 0.49 | 0.51 |
| Drsl2 (Drosomycin-like 2) | DRSC08160 | 0.25 | 0.12 |
| CG4781 | DRSC04488 | -0.23 | 0.18 |
| Ir54a + sub | DRSC06459 | 0.38 | 0.32 |
| CG3534 | DRSC15494 | 0.3 | 0.15 |
| fok (fledgling of Klp38B) | DRSC02103 | 0.43 | 0.32 |
| Ttc26 (Tetratricopeptide repeat domain 26) | DRSC15591 | 0.76 | 0.27 |
| bora (aurora borealis) | DRSC10744 | 0.14 | 0.06 |
| CG31789 | DRSC01645 | 0.06 | 0.25 |
| PolE1 (DNA polymerase epsilon subunit 1) | DRSC16112 | 0.72 | 0.5 |
| LRP1 (LDL receptor protein 1) | DRSC07238 | 0.05 | 0.19 |
| CG33003 | DRSC22419 | 0.02 | -5.16 |
| CG14244 | DRSC14739 | 0.29 | 0.32 |
| CG14431 | DRSC17925 | 0.25 | 0.66 |
| CG14431 | DRSC17926 | -4.11 | -2.76 |
| CG33332 | DRSC15504 | 0.5 | -0.37 |
| sm (smooth) | DRSC05795 | -0.18 | 0.39 |
| sm (smooth) | DRSC07686 | 0.02 | -0.15 |
| CG12129 | DRSC06105 | 0.22 | 0.35 |
| CG43100 (retired record) | DRSC01001 | 0.13 | 0.39 |
| Gk2 (Glycerol kinase 2) | DRSC08610 | 0.19 | 0.26 |
| Cpr47Ed (Cuticular protein 47Ed) | DRSC07331 | -0.11 | 0.06 |
| CG5726 | DRSC06946 | 0.19 | 0.31 |
| CG13002 | DRSC19521 | 0.42 | 0.56 |
| hiw (highwire) | DRSC20338 | 0.12 | 0.3 |
| hiw (highwire) | DRSC20339 | 0.15 | -0.3 |
| CG15614 | DRSC06567 | 0.35 | 0.14 |
| CG18130 | DRSC19790 | 0.45 | 0.27 |
| CG12448 | DRSC01967 | -0.24 | -0.01 |
| CG4025 | DRSC18523 | 0.27 | 0.28 |
| IntS8 (Integrator 8) | DRSC07417 | 1.05 | 0.85 |
| hdly (hadley) | DRSC15849 | 0.23 | 0.19 |
| Tbc1d8-9 (TBC1 domain family member 8/9) | DRSC11820 | 0.23 | 0.25 |
| CG32655 | DRSC18925 | 0 | 0.03 |
| CG31371 | DRSC15079 | 0.27 | 0.4 |
| CG6012 | DRSC02921 | 0.43 | 0.35 |
| lncRNA:CR30009 (long non-coding RNA:CR30009) | DRSC22952 | -0.39 | 0.13 |
| CG13748 | DRSC06419 | 0.26 | -0.07 |
| Pop5 (POP5 ribonuclease P/MRP subunit) | DRSC10074 | 0.35 | -0.17 |
| CG5885 | DRSC02910 | 0.31 | 0.4 |
| Galphaf (G protein alpha subunit f) | DRSC11171 | 0.15 | 0.32 |
| CG14662 + asRNA:CR43478 | DRSC12248 | 0.03 | 0.38 |
| CG32487 | DRSC21745 | -0.21 | -0.37 |
| Lime (Linking immunity and metabolism) | DRSC06752 | 0.4 | 0.46 |
| CG5541 | DRSC19946 | 0.16 | 0.32 |
| CG9733 | DRSC16549 | 0.19 | 0.12 |
| CG9631 | DRSC14137 | 0.33 | 0.37 |
| Ppt2 (Palmitoyl-protein Thioesterase 2) | DRSC02786 | 0.54 | 0.42 |
| Mst98Cb (Male-specific RNA 98Cb) | DRSC16750 | 0.08 | 0.45 |
| Mst98Cb (Male-specific RNA 98Cb) | DRSC22495 | 0.19 | -0.24 |
| CG41020 (retired record) | DRSC20866 | 0.01 | 0.68 |
| bond (james bond) | DRSC16135 | 0.32 | 0.27 |
| mei-217 + mei-218 | DRSC20349 | 0.05 | 0.24 |
| CG31820 | DRSC21318 | 0.86 | 1.23 |
| Gip (GIP-like) | DRSC18667 | -2.14 | -0.4 |
| eIF4H1 (eukaryotic translation initiation factor 4H1) | DRSC20276 | 0.42 | -0.36 |
| ZC3H3 | DRSC10696 | -4.84 | -4.74 |
| mRpL44 (mitochondrial ribosomal protein L44) | DRSC12306 | -0.29 | -0.66 |
| dpr8 (defective proboscis extension response 8) | DRSC19406 | -0.14 | 0.16 |
| dpr8 (defective proboscis extension response 8) | DRSC19600 | 0.36 | 0.29 |
| dpr8 (defective proboscis extension response 8) | DRSC19938 | 0.25 | 0.45 |
| dpr8 (defective proboscis extension response 8) | DRSC19939 | 0.19 | 0.12 |
| ord (orientation disruptor) | DRSC04706 | 0.33 | 0.44 |
| CG9014 | DRSC01979 | 0.47 | 0.28 |
| Galphaq (G protein alpha subunit q) | DRSC07432 | 0.4 | 0.41 |
| pre-mod(mdg4)-W + pre-mod(mdg4)-Y + mod(mdg4) + 3 more | DRSC16328 | 0.43 | 0.2 |
| MESK2 + CG10494 | DRSC04259 | 0.2 | 0.01 |
| Amy-d (Amylase distal) | DRSC05919 | 0.26 | 0.4 |
| CG14932 | DRSC02414 | 0.32 | 0.36 |
| lbk (lambik) | DRSC07178 | 0.23 | 0.35 |
| Pabp2 | DRSC07501 | -3.95 | -4.09 |
| Gyc89Da (Guanylyl cyclase at 89Da) | DRSC15008 | -0.29 | 0.06 |
| Lrpprc2 (Leucine-rich pentatricopeptide repeat containing 2) | DRSC18605 | -0.42 | -0.19 |
| r-cup (ryder cup) | DRSC20475 | 0.26 | 0.14 |
| Las (Lipoic acid synthase) | DRSC11772 | 0.41 | -0.17 |
